In article doi:10.1101/2020.03.23.003509:

Experiments:
[1] = molecular target: T1, GST-Kaiso (full-length Kaiso, ZBTB33, from pEBG-GST-Kaiso) (human) (UniProt Q86T24); assay: pull-down
T1 sequence: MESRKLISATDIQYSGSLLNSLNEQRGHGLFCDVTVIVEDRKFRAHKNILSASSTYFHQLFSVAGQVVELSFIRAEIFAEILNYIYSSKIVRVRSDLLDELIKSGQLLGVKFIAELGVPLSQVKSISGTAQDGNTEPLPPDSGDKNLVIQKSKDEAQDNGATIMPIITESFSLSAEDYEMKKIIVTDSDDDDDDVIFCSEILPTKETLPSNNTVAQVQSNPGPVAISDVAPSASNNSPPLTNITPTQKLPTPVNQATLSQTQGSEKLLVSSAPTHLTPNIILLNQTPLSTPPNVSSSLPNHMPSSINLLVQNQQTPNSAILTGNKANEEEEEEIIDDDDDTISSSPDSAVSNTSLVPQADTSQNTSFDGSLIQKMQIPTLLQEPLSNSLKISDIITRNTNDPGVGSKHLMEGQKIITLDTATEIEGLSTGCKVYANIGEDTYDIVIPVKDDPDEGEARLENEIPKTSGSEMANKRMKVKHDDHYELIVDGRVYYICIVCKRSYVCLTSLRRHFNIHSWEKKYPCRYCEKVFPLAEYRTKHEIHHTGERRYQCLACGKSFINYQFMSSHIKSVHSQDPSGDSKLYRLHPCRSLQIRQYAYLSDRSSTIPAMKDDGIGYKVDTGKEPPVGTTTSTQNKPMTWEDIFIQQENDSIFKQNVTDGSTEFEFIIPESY

[2] = molecular target: T2, Kaiso wild type (Kaiso-wt), transfected, from pEGFP-C1-Kaiso (human) (UniProt Q86T24); assay: co-IP
T2 sequence: T1 sequence

[3] = molecular target: T3, endogenous Kaiso (ZBTB33) (human (endogenous in MGC803)) (UniProt Q86T24); assay: co-IP
T3 sequence: T1 sequence

Substance	binding [1]	binding [2]	binding [3]
Flag-14-3-3ζ (human)	binds	–	–
endogenous pan-14-3-3 (human (endogenous in MGC803))	–	binds	binds

These are yes or no findings as the source states them, for the method shown. In cells and extracts the contact can be indirect. Binding can be weak; no strength is given. For part of these data: Where a sequence is shown, tags or fusion partners need not be part of it.
